Data as given in PubChem BioAssay AID1259308 (NCATS, 2017).

- Screen: 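Candidate targets for better recombinant protein yield in mammalian cells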 (primary screen)
- Cell system: human HEK293 embryonic kidney cells stably expressing firefly luciferase (HEK-CMV-Luc2-Hygro)
- Reagent: single siRNA against human genes, 0.8 pmol siRNA per well
- Time to read-out: 72 h
- Read-out: 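Reporter luminescence and viable-cell signal on separate replicate plates, given as percent of non-targeting control and median/MAD z-scores, plus per-cell luciferase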
- Reading the numbers: total luciferase, z-score and total luciferase, % of control: higher = more reporter protein produced
- Call rule: 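Active when the median/MAD z-score for overall luciferase is greater than 3; a gene was taken forward for validation with new siRNAs if at least two of its three siRNAs passed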
- Meaning of the calls: active = raised luciferase; inactive = no rise
This is an unselected part of about 59,000 reagents tested. About 1,510 of all reagents (2.6%) count as active. 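Calls use total luciferase alone and ignore viability, so some active siRNAs may act by altering cell number.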 A number with no mark means an inactive call. The numbers tell different reagents against one gene apart. Not all columns of the deposit are shown. Reagent sequences are not shown.

{"target gene": "PPP4R1", "reagent": 1, "total luciferase, z-score": 1.37, "total luciferase, % of control": 109}
{"target gene": "PPP4R1", "reagent": 2, "total luciferase, z-score": 0.481, "total luciferase, % of control": 91.4}
{"target gene": "PPP4R1", "reagent": 3, "total luciferase, z-score": 0.426, "total luciferase, % of control": 90.4}
{"target gene": "FOXA3", "reagent": 1, "total luciferase, z-score": 0.499, "total luciferase, % of control": 91.8}
{"target gene": "FOXA3", "reagent": 2, "total luciferase, z-score": 0.954, "total luciferase, % of control": 101}
{"target gene": "FOXA3", "reagent": 3, "total luciferase, z-score": -0.781, "total luciferase, % of control": 66.4}
{"target gene": "LRRC78P", "reagent": 1, "total luciferase, z-score": 2.37, "total luciferase, % of control": 129}
{"target gene": "LRRC78P", "reagent": 2, "total luciferase, z-score": 0.762, "total luciferase, % of control": 97}
{"target gene": "LRRC78P", "reagent": 3, "total luciferase, z-score": 0.868, "total luciferase, % of control": 99.2}
{"target gene": "LEPROTL1", "reagent": 1, "total luciferase, z-score": -0.164, "total luciferase, % of control": 78.6}
{"target gene": "LEPROTL1", "reagent": 2, "total luciferase, z-score": 1.26, "total luciferase, % of control": 107}
{"target gene": "LEPROTL1", "reagent": 3, "total luciferase, z-score": 1.7, "total luciferase, % of control": 116}
{"target gene": "C14orf119", "reagent": 1, "total luciferase, z-score": 0.0191, "total luciferase, % of control": 82.3}
{"target gene": "C14orf119", "reagent": 2, "total luciferase, z-score": 0.111, "total luciferase, % of control": 84.1}
{"target gene": "C14orf119", "reagent": 3, "total luciferase, z-score": -0.682, "total luciferase, % of control": 68.3}

An excerpt from above, reduced to “total luciferase, % of control”:
LEPROTL1 #2	107
LEPROTL1 #3	116
C14orf119 #1	82.3
C14orf119 #2	84.1
C14orf119 #3	68.3

Further entries:
{"target gene": "MYL11", "reagent": 1, "total luciferase, z-score": -0.521, "total luciferase, % of control": 71.5}
{"target gene": "MYL11", "reagent": 2, "total luciferase, z-score": 0.21, "total luciferase, % of control": 86.1}
{"target gene": "MYL11", "reagent": 3, "total luciferase, z-score": 0.763, "total luciferase, % of control": 97.1}
{"target gene": "CDKN2A", "reagent": 1, "total luciferase, z-score": -0.317, "total luciferase, % of control": 75.6}
{"target gene": "CDKN2A", "reagent": 2, "total luciferase, z-score": -1.19, "total luciferase, % of control": 58.3}
{"target gene": "CDKN2A", "reagent": 3, "total luciferase, z-score": -0.152, "total luciferase, % of control": 78.9}
{"target gene": "DTX3L", "reagent": 1, "total luciferase, z-score": 2.77, "total luciferase, % of control": 137}
{"target gene": "DTX3L", "reagent": 2, "total luciferase, z-score": -0.576, "total luciferase, % of control": 70.4}
{"target gene": "DTX3L", "reagent": 3, "total luciferase, z-score": -0.0275, "total luciferase, % of control": 81.3}
{"target gene": "DLC1", "reagent": 1, "total luciferase, z-score": -0.087, "total luciferase, % of control": 80.2}
{"target gene": "DLC1", "reagent": 2, "total luciferase, z-score": 1.84, "total luciferase, % of control": 119}
{"target gene": "DLC1", "reagent": 3, "total luciferase, z-score": 0.0973, "total luciferase, % of control": 83.8}
{"target gene": "NSFP1", "reagent": 1, "total luciferase, z-score": -1.16, "total luciferase, % of control": 58.8}
{"target gene": "NSFP1", "reagent": 2, "total luciferase, z-score": -0.84, "total luciferase, % of control": 65.2}
{"target gene": "NSFP1", "reagent": 3, "total luciferase, z-score": -0.426, "total luciferase, % of control": 73.4}
{"target gene": "JUP", "reagent": 1, "total luciferase, z-score": -0.958, "total luciferase, % of control": 62.8}
{"target gene": "JUP", "reagent": 2, "total luciferase, z-score": 0.26, "total luciferase, % of control": 87.1}
{"target gene": "JUP", "reagent": 3, "total luciferase, z-score": -0.486, "total luciferase, % of control": 72.2}
